Reference: PubChem BioAssay AID720706 (Broad Institute, 2013)
The other results are listed elsewhere or left out. Some salts and complexes are drawn in separate pieces, as the source files them; their charges need not balance.

Assay: reduced GFP signal of wild-type E. coli, primary screen, bacterial rRNA inhibitor project, GFP/RFP fluorescence, OD600, single point (AID 720706)
Conditions: E. coli WT GFP vs humanized-ribosome RFP mutants, 24 h; OD600 change: measured here: OD600 growth, DMSO median 0, no signal -100; RFP signal change: measured here: RFP humanized mutant strains, DMSO median 0, no signal -100, concentration not given here

| SMILES | OD600 change [%] | RFP signal change [%] |
| --- | --- | --- |
| O=C(OC1CN2CCC1CC2)c1ccccc1 (stereo not given) | 9.8 | -2.21 |
| Cc1c([N+](=O)[O-])cc([N+](=O)[O-])c(Br)c1[N+](=O)[O-] | 6.71 | -1.07 |
| Cc1ccc(OP(=O)(Nc2ccccn2)Oc2ccc(C)cc2)cc1 | -24.9 | -4.62 |
| CC(NC(=O)COC(=O)C(O)(c1ccccc1)c1ccccc1)c1ccccc1 (stereo not given) | -29.1 | 2.54 |
| Cc1ccccc1OP(=O)(Nc1ccccn1)Oc1ccccc1C | -49.8 | 2.61 |
| O=c1c2cc([N+](=O)[O-])ccc2[nH]c2c([N+](=O)[O-])cc([N+](=O)[O-])cc12 | -2.38 | 4.06 |
| CCCCCOc1ccc(NP(C)(=O)Oc2ccc(Cl)cc2Cl)cc1 (stereo not given) | 8.59 | -0.36 |
| O=[N+]([O-])c1cc([N+](=O)[O-])c(OC2CCCCC2O)c([N+](=O)[O-])c1 (stereo not given) | 3.57 | -7.19 |
| CN(C)C(=O)Oc1noc2ccccc12 | 9.34 | 2.1 |
| c1ccc(-c2nn[nH]n2)c(-c2nn[nH]n2)c1 | 7.92 | 0.699 |
| Cc1ccc(NP(=O)(Oc2cccc(C)c2)Oc2cccc(C)c2)nc1 | 4.65 | 0.22 |
| CCNC(=S)/N=C(\N)N[N+](=O)[O-] | 5.91 | -2.45 |
| O=C(NC1CCS(=O)(=O)C1)NP(=S)(Oc1ccccc1)Oc1ccccc1 (stereo not given) | -19.4 | -7.58 |
| COc1ccc(OP(C)(=O)Nc2ccc(SC(F)(F)F)cc2)cc1 (stereo not given) | 0.24 | 1.87 |
| O=P1(N(CCCl)CCCl)OCCC2CCCCN21 (stereo not given) | 6.57 | 0.91 |
| Cc1ccccc1CN(C)C(=O)COC(=O)C(O)(c1ccccc1)c1ccccc1 | -58 | -9.63 |
| O=C(OCCN1CCN(CCOCc2ccccc2)CC1)C(O)(c1ccccc1)c1ccccc1 | -5.62 | 1.73 |
| C[C@H]1OP(=O)(Oc2ccccc2)C[C@@H]2O[C@@H]21 (stereo not given in full) | 19.1 | -1.75 |
| C[C@@H]1C=CCP(=O)(Oc2ccccc2)O1 (stereo not given in full) | -14.7 | 0.885 |
| CC(=O)c1ccc(N2CC2c2ccncc2)cc1 (stereo not given) | 14.6 | 0.19 |
| N#C/C(=C\c1ccc(N(CCBr)CCBr)cc1)C(N)=O | 3.2 | -2.05 |
| O=C(OC1CN2CCC1CC2)c1ccc([N+](=O)[O-])cc1 (stereo not given) | -2.77 | 0.213 |
| COC(=O)C1(C)COP(=O)(NCc2ccccc2)OC1 (stereo not given) | 16.8 | 0.818 |
| CC(=O)Nc1ccc([As](=O)(O)O)c(O)c1 | 8.88 | 1.65 |

| SMILES | OD600 change [%] | RFP signal change [%] |
| --- | --- | --- |
| COc1ccc2c(c1O)-c1c(O)c(OC)cc3c1[C@H](C2)[N+](C)(C)CC3.O=[N+]([O-])c1cc([N+](=O)[O-])c([O-])c([N+](=O)[O-])c1[O-] | 9.77 | -2.5 |
| O=[N+]([O-])c1cc([N+](=O)[O-])c(Nc2ccc(Cl)cc2)c([N+](=O)[O-])c1 | -73.9 | -17.9 |
| CCOc1ccc(C2=NCC(CBr)S2)cc1 (stereo not given) | 8.69 | -3.39 |
| CC(C)(C)C(=O)NC(Sc1ccccc1)C(Cl)(Cl)Cl (stereo not given) | -28.9 | -2.91 |
| CC(C)c1ccc(OP(C)(=O)Nc2ccc(SC(F)(F)F)cc2)cc1 (stereo not given) | -13.9 | 8.28 |
| CCc1cc(O)c([N+](=O)[O-])c(C)c1[N+](=O)[O-] | -45.7 | -3.1 |
| CP(=O)(Nc1ccccc1F)Oc1ccccc1 (stereo not given) | 9.21 | -8.39 |
| CP(=O)(Nc1ccc(SC(F)(F)F)cc1)Oc1ccc(F)cc1 (stereo not given) | -38.1 | -7.01 |
| CCOP(=O)(CC)OCC | 7.27 | 0.194 |
| O=[As](O)(c1ccccc1)c1ccc(O)cc1 | 10.8 | 5.2 |
| Cc1cc(-c2cccc3ccccc23)c(C)cn1.O=[N+]([O-])c1cc([N+](=O)[O-])c(O)c([N+](=O)[O-])c1 | -21.1 | -4.97 |
| O=[N+]([O-])c1cc([N+](=O)[O-])c(NCC2CCS(=O)(=O)C2)c([N+](=O)[O-])c1 (stereo not given) | 24.4 | 4.44 |
| CC(=O)NC(SC(=S)N(C)C)C(Cl)(Cl)Cl (stereo not given) | 14.9 | -1.39 |
| O=[N+]([O-])c1ccc(OP2(=O)COCCO2)cc1 (stereo not given) | 11.8 | -0.1 |
| O=[N+]([O-])c1ncn(CCn2cnc([N+](=O)[O-])n2)n1 | 3.63 | -0.755 |
| Cc1c(C(c2ccc3c(c2)OCO3)c2c(C)n(C)n(-c3ccccc3)c2=O)c(=O)n(-c2ccccc2)n1C.O=[N+]([O-])c1cc([N+](=O)[O-])c(O)c([N+](=O)[O-])c1 | 10 | -0.37 |
| C/C(N)=N\P(=O)(OCc1ccccc1)OCc1ccccc1 | 17.4 | -2.57 |
| C(Cc1nn[nH]n1)Cc1nn[nH]n1 | 1.25 | -2.13 |
| Nc1ccc([As](=O)(O)c2ccc([N+](=O)[O-])cc2)cc1 | -2.66 | -4 |
| O=P(Nc1ccccn1)(c1ccc(Br)cc1)c1ccc(Br)cc1 | 5.38 | -1.07 |
| CN(C)C1(CNC(=O)c2ccc(Cl)c(S(N)(=O)=O)c2)CCCCC1 | 0.621 | -2.45 |
| COc1ccc(N)c([N+](=O)[O-])c1[N+](=O)[O-] | -24.3 | -3.55 |
| COc1ccc(NP(C)(=O)Oc2ccccc2OC)cc1 (stereo not given) | 3.6 | -1.9 |
| O=P(Nc1nc2ccccc2s1)(c1ccccc1)c1ccccc1 | -10.9 | -0.505 |

| SMILES | OD600 change [%] | RFP signal change [%] |
| --- | --- | --- |
| C[C@H]1OP(=O)(Oc2ccccc2)[C@H](O)[C@H](O)[C@H]1N=[N+]=[N-] (stereo not given in full) | 16.2 | -0.176 |
| O=[N+]([O-])c1ncn(CCn2ncnc2[N+](=O)[O-])n1 | 5.76 | -0.565 |
| CC(C)(C)C(=O)NC(Sc1ccncn1)C(Cl)(Cl)Cl (stereo not given) | 7.75 | -1.93 |
| O=C(O)CNc1ccc([As](=O)(O)O)cc1 | 18.7 | 0.065 |
| COC(=O)C1(C)COP(=O)(Nc2ccccc2)OC1 (stereo not given) | 13.5 | -2.14 |
| O=[N+]([O-])c1cccc(NC2=NCC(CBr)S2)c1 (stereo not given) | 1.42 | 3.25 |
| O=P1(N(CCCl)CCCl)OCCCS1 (stereo not given) | 27.2 | 2.67 |
| Nc1ccc2c(ccc3cccnc32)n1.O=[N+]([O-])c1cc([N+](=O)[O-])c(O)c([N+](=O)[O-])c1 | -18.8 | -8.55 |
| CCOC(=O)c1ccc(NP(C)(=O)Oc2ccc(Cl)cc2)cc1 (stereo not given) | -24.1 | -2.5 |
| O=C(Nc1cc([As](=O)(O)O)ccc1O)c1ccccc1 | 16.1 | 2.79 |
| CCN(/C(=N/P(=O)(N1CCOCC1)N1CCOCC1)N1CCOCC1)c1ccc(OC)cc1 | 2.97 | 0.345 |
| COc1ccccc1OP(C)(=O)Nc1ccccc1Br (stereo not given) | 1.84 | 0.9 |
| Nc1ccc([As](=O)(O)c2ccc(N)cc2)cc1 | -0.266 | 1.21 |
| C[N+]1=C2C=CC=CC=C2SC12C([N+](=O)[O-])=CC([N+](=O)[O-])=C[C-]2[N+](=O)[O-] (stereo not given) | 6.58 | -5.23 |
| c1cc(-c2nn[nH]n2)ccc1-c1nn[nH]n1 | 14.1 | -1.34 |
| CC(C)c1nc(Nc2ccccc2)n(P(=O)(N(C)C)N(C)C)n1 | -1.77 | 1.99 |
| CN(C)C(=O)c1c([N+](=O)[O-])cc([N+](=O)[O-])cc1[N+](=O)[O-] | 9.41 | -0.797 |
| CC(C)=N/N=C(\N)N[N+](=O)[O-] | 6.06 | 1.06 |
| COc1ccc(C2=NCC(CBr)S2)cc1 (stereo not given) | 4.09 | -7.32 |
| Cc1ccc(NP(=O)(Oc2ccccc2)Oc2ccccc2)nc1 | 19.9 | 2 |
| CCc1ccc(OP(C)(=O)Nc2cccnc2)cc1 (stereo not given) | -5.51 | -1.65 |
| O=[N+]([O-])c1cc([N+](=O)[O-])c(CCNc2ccccc2)c([N+](=O)[O-])c1 | 14.1 | -1.99 |
| O=C(OCCCN1CCCC1)C(O)(c1ccccc1)C1CCCCC1 (stereo not given) | -10.1 | 2.29 |
| O=C(NC(Sc1ccncn1)C(Cl)(Cl)Cl)c1ccccc1 (stereo not given) | 18.3 | 11.6 |

| SMILES | OD600 change [%] | RFP signal change [%] |
| --- | --- | --- |
| Nc1cc(N)c2nonc2c1[N+](=O)[O-] | -9.63 | -2.36 |
| CC(C)CC(=O)NC(Sc1ccc(Cl)cc1)C(Cl)(Cl)Cl (stereo not given) | -21.8 | -0.815 |
| O=[N+]([O-])c1cc([N+](=O)[O-])c(Nc2ccccn2)c([N+](=O)[O-])c1 | -5.12 | -8.23 |
| CN(C(=O)Cc1ccc(Cl)c(Cl)c1)[C@H]1CCCC[C@H]1N1CCCC1 | 5.84 | 6.75 |
| COc1ccccc1OP(C)(=O)Nc1ccc(Br)cc1 (stereo not given) | 2.46 | -1.16 |
| NC(=O)c1cc([N+](=O)[O-])cc([N+](=O)[O-])c1N | 6.46 | 11.6 |
| Clc1ccc(Cl)c(NC2=NCC(CBr)S2)c1 (stereo not given) | -22.7 | -6.18 |
| COc1ccccc1OP(=O)(Nc1ccc(C)cn1)Oc1ccccc1OC | 28.5 | -0.195 |
| Cc1ccc(OP(=O)(Nc2nccs2)Oc2ccc(C)cc2)cc1 | 16.9 | 2.05 |
| Nc1cccc2ccc([As](=O)(O)O)cc12 | -1.06 | 30.6 |
| CCCCCCCCCCCCCCCC1C[N+](C)(C)CCOP(C)(=O)O1 (stereo not given) | -74.3 | -20.5 |
| CP(=O)(Nc1ccc(Cl)cc1Cl)Oc1ccccc1 (stereo not given) | -19.5 | -6.93 |
| CP(=O)(OCCOc1ccccc1)OCCOc1ccccc1 | -17.1 | 4.6 |
| CN(C(=O)Cc1ccccc1)C1CC[C@@]2(CCCO2)C[C@@H]1N1CCCC1 (stereo not given in full) | -5 | 3.58 |
| O=C1C(O)=C([N+](=O)[O-])C(=O)C(O)=C1[N+](=O)[O-] | 20.6 | 3.86 |
| O=P(Nc1nc2ccc(Cl)cc2s1)(c1ccccc1)c1ccccc1 | -42.2 | -15.4 |
| Cc1cc(C)cc(OP(C)(=O)Nc2cccc(C(F)(F)F)c2)c1 (stereo not given) | 6.82 | 0.454 |
| CN(C)P(=O)(N(C)C)n1c(Nc2ccccc2)nnc1-c1ccccc1 | -48.5 | 22.1 |
| CC(=O)Nc1ccc([As](=O)(O)O)cc1 | 12.6 | 1.81 |
| O=C(O)c1ccccc1[As](=O)(O)O | 2.79 | -6.05 |
| CCCC1OP(N)(=O)OCC1CC (stereo not given) | 10 | 9.85 |
| CCn1c(=O)n(C2CCN(CC3CCCCCCC3)C[C@H]2CO)c2ccccc21 (stereo not given in full) | -9.04 | 0.481 |
| Cc1ccc(NP(=O)(Oc2ccccc2F)Oc2ccccc2F)nc1 | 12.9 | 2.66 |
